Some results were stated once for a whole list of compounds, not compound by compound.
How the values were obtained:
Assay type in all cases: in vivo
Tetranychus urticae = Tetranychus urticae (Two-spotted spider mite) bean leaf disc spray test; conditions: 200 ppm spray on bean leaf discs; mixed ages; 8 days; egg, larval and adult mortality
Myzus persicae [1] = assay: Myzus persicae (Green peach aphid) pea seedling root uptake test; conditions: 24 ppm test solution, roots of infested pea seedlings; 6 days; mortality
Myzus persicae [2] = assay: Myzus persicae (Green peach aphid) sunflower leaf disc spray test; conditions: 200 ppm spray on sunflower leaf discs; mixed ages; 6 DAT; mortality

| SMILES | control of Tetranychus urticae (Tetranychus urticae) | control of Myzus persicae (Myzus persicae [1]) | control of Myzus persicae (Myzus persicae [2]) |
| --- | --- | --- | --- |
| CCC(Oc1c(C)c(F)cc(F)c1F)C1=NCCN1 (stereo not shown) [Compound 1.022, 2[1-(2,3,5-trifluoro-6-methyl-phenoxy)-propyl]-4,5-dihydro-1H-imidazole] | at least 80% | – | – |
| CCC(Oc1c(F)ccc(C)c1F)C1=NCCN1 (stereo not shown) [Compound 1.009, 2-[1-(2,6-difluoro-3-methyl-phenoxy)-propyl]-4,5-dihydro-1H-imidazole] | at least 80% | at least 80% | at least 80% |
| CCC(Oc1cc(F)ccc1F)C1=NCCN1 (stereo not shown) [Compound 1.002, 2-[1-(2,5-difluoro-phenoxy)-propyl]-4,5-dihydro-1H-imidazole] | at least 80% | – | at least 80% |
| CC(Oc1cc(F)cc(F)c1)C1=NCCN1 (stereo not shown) [Compound 1.015, 2-[1-(3,5-difluoro-phenoxy)-ethyl]-4,5-dihydro-1H-imidazole] | – | – | at least 80% |

— patent US20100120882A1, “PHENOXYMETHYL IMIDAZOLINE DERIVATIVES AND THEIR USE AS PESTICIDES” (SYNGENTA CROP PROTECTION, INC., priority 2007, published 2010)
